# Results: article PMC11551761
# Amino acid sequences for entries named in this document (tags omitted). Residues count along the entry.
# UniProt P18858, whole entry: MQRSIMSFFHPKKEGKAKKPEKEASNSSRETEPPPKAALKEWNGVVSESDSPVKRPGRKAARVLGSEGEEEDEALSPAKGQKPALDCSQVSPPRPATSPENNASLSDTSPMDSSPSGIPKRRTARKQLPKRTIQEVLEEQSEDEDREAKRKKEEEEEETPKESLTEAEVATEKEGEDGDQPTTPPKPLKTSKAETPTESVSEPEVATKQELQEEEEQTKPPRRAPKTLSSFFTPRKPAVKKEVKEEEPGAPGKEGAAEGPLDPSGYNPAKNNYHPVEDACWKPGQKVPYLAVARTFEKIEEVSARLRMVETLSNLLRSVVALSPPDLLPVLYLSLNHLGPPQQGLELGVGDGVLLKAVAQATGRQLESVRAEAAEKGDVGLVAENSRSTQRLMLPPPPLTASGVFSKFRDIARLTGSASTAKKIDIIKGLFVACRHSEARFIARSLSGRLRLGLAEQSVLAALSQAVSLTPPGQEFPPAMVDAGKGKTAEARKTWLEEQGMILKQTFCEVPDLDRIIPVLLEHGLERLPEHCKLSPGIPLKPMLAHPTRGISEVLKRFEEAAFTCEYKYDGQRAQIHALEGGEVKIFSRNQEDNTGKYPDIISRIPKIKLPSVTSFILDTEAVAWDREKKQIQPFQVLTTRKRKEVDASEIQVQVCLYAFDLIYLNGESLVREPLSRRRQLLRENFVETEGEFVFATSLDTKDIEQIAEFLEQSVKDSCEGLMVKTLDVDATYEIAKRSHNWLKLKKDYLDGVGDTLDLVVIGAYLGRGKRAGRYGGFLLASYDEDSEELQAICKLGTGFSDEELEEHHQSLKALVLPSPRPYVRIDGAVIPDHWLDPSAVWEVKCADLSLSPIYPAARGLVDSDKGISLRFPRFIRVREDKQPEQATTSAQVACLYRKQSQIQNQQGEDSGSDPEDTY
# UniProt P18858, 261-919: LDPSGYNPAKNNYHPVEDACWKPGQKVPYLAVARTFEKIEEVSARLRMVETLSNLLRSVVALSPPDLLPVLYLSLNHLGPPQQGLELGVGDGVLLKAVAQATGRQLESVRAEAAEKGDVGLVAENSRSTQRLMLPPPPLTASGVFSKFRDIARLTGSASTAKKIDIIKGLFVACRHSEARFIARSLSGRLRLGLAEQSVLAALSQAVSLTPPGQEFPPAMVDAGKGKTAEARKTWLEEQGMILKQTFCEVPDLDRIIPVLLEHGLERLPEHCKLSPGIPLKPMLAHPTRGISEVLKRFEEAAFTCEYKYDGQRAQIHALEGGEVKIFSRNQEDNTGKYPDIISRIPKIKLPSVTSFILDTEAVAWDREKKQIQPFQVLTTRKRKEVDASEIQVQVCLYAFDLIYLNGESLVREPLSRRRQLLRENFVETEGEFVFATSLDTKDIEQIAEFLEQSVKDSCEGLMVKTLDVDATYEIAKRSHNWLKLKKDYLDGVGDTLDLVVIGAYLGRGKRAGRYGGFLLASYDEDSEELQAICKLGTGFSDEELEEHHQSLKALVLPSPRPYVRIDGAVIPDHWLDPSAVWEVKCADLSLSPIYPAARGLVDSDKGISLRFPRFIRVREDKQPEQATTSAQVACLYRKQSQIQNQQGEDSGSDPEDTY
# The comparison behind a weaker result is the experiment's own reference, which may not be listed here. For some of these results: The exact form of at least one protein or probe is not confirmed.
# Tests used:
# [1] = target: LIG1 full-length (human) (UniProt P18858); assay: single-molecule TIRF; conditions: 1 mM HEPES pH 7.4, 20 mM NaCl, 0.02% BSA, 0.002% Tween 20 (BLI, C-Trap, TIRF; TIRF plus oxygen scavenger and 10 mM Trolox), recombinant protein, residues 1-919
# [2] = target: LIG1 C-terminal del1-260 (human) (UniProt P18858); assay: single-molecule TIRF; conditions: no Mg2+, bound lifetimes 0.8 s (80%), 3.5 s (20%), unbound 98 s; 5'-phosphate on Down; 3'-OH at nick; 1 mM HEPES pH 7.4, 20 mM NaCl, 0.02% BSA, 0.002% Tween 20 (BLI, C-Trap, TIRF; TIRF plus oxygen scavenger and 10 mM Trolox); recombinant protein; residues 261-919; label: 5'-biotin on Up, 3'-AF488 on Down
sequence,measurement,setting,value
CATGGGCGGCATGAACCA / GAGGCCCATCCTCACC / GGTGAGGATGGGCCTCTGGTTCATGCCGCCCATG [34-mer single-nick DNA (Up-OH + Down / Template T)],binding result,"[1]; 10 mM Mg2+ (nick sealing expected), bound lifetimes 0.3 s (80%), 2.9 s (20%), 5'-phosphate on Down, 3'-OH at nick, label: 5'-biotin on Up, 3'-AF488 on Down",binds more weakly
same,binding result,[2],binds more weakly
CATGGGCGGCATGAACCAGAGGCCCATCCTCACC (double strand) [34-mer no-nick DNA (Top / Template T)],binding result,"[1]; no Mg2+, bound lifetimes 0.26 s (80%), 2.8 s (20%), label: 5'-biotin and 3'-AF488 on Top",binds more weakly
"CATGGGCGGCATGAACCC / GAGGCCCATCCTCACC / GGTGAGGATGGGCCTCGGGTTCATGCCGCCCATG [34-mer single-nick DNA, 3'-ddC (Up-ddC + Down / Template G)]",binding result,"[1]; similar to unmodified nick DNA, 3'-ddC (X, last nt of Up), non-ligatable, 5'-phosphate on Down, label: 5'-biotin on Up, 3'-AF488 on Down",binds
